Data taken from patent publication US20250121090A1 (priority 2021, published 2025).

Test: general procedure: solution-phase peptide synthesis; PNP carbonate / PFP ester with DIPEA, HOAt
Conditions: conjugation step

Row | Substance | conjugation yield | conjugation yield (over 2 steps)
1 | (2S,3S,4S,5R,6S)-6-(5-((5S,8S,11S,12R)-11-((S)-sec-butyl)-12-(2-((S)-2-((1R,2R)-3-(((1S,2R)-1-hydroxy-1-phenylpropan-2-yl)amino)-1-methoxy-2-methyl-3-oxopropyl)pyrrolidin-1-yl)-2-oxoethyl)-5,8-diisopropyl-4,10-dimethyl-3,6,9-trioxo-2,13-dioxa-4,7,10-triazatetradecyl)-2-((2S,5S,18R)-22-(2-((1,2-dimethylhydrazineyl)methyl)-1H-pyrrolo[2,3-b]pyridin-1-yl)-5-isopropyl-2-methyl-4,7,17,20-tetraoxo-18-(sulfomethyl)-10,13-dioxa-3,6,16,19-tetraazadocosanamido)phenoxy)-3,4,5-trihydroxytetrahydro-2H-pyran-2-carboxylic acid | 75% yield | 
2 | (2S,3S,4S,5R,6S)-6-(5-((5S,8S,11S,12R)-11-((S)-sec-butyl)-12-(2-((S)-2-((1R,2R)-3-(((1S,2R)-1-hydroxy-1-phenylpropan-2-yl)amino)-1-methoxy-2-methyl-3-oxopropyl)pyrrolidin-1-yl)-2-oxoethyl)-5,8-diisopropyl-4,10-dimethyl-3, 6,9-trioxo-2,13-dioxa-4,7,10-triazatetradecyl)-2-((2S,5S)-19-(2-((1,2-dimethylhydrazineyl)methyl)-1H-pyrrolo[2,3-b]pyridin-1-yl)-5-isopropyl-2-methyl-4,7,17-trioxo-10,13-dioxa-3,6,16-triazanonadecanamido)phenoxy)-3,4,5-trihydroxytetrahydro-2H-pyran-2-carboxylic acid |  | 47% yield over 2 steps
